Test results from paper PMC9943668.
These are yes or no findings as the source states them, for the method shown. In cells and extracts the contact can be indirect. Some binding calls cover weakened binding; strength is not graded here. Where a sequence is shown, tags or fusion partners need not be part of it.

Chains of the proteins cited; added tags and fusions are not shown.
UniProt Q13227: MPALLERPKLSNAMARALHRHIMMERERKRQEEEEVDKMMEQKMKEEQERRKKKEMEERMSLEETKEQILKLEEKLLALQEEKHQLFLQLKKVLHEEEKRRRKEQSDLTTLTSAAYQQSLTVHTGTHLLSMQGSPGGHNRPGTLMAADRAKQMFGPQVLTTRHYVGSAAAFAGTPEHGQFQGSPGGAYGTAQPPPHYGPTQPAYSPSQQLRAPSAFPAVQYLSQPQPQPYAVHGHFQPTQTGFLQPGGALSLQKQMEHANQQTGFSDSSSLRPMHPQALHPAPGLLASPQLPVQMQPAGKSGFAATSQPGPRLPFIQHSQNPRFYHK
UniProt P05412: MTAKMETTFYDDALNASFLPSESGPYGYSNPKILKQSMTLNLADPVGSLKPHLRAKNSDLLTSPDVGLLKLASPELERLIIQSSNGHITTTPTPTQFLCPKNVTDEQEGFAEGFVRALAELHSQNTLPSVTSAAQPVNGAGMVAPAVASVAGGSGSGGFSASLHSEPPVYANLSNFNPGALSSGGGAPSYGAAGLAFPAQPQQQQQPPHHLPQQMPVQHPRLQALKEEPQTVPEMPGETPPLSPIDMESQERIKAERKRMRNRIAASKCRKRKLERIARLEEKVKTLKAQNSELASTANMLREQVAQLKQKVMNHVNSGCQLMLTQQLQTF
UniProt O75376: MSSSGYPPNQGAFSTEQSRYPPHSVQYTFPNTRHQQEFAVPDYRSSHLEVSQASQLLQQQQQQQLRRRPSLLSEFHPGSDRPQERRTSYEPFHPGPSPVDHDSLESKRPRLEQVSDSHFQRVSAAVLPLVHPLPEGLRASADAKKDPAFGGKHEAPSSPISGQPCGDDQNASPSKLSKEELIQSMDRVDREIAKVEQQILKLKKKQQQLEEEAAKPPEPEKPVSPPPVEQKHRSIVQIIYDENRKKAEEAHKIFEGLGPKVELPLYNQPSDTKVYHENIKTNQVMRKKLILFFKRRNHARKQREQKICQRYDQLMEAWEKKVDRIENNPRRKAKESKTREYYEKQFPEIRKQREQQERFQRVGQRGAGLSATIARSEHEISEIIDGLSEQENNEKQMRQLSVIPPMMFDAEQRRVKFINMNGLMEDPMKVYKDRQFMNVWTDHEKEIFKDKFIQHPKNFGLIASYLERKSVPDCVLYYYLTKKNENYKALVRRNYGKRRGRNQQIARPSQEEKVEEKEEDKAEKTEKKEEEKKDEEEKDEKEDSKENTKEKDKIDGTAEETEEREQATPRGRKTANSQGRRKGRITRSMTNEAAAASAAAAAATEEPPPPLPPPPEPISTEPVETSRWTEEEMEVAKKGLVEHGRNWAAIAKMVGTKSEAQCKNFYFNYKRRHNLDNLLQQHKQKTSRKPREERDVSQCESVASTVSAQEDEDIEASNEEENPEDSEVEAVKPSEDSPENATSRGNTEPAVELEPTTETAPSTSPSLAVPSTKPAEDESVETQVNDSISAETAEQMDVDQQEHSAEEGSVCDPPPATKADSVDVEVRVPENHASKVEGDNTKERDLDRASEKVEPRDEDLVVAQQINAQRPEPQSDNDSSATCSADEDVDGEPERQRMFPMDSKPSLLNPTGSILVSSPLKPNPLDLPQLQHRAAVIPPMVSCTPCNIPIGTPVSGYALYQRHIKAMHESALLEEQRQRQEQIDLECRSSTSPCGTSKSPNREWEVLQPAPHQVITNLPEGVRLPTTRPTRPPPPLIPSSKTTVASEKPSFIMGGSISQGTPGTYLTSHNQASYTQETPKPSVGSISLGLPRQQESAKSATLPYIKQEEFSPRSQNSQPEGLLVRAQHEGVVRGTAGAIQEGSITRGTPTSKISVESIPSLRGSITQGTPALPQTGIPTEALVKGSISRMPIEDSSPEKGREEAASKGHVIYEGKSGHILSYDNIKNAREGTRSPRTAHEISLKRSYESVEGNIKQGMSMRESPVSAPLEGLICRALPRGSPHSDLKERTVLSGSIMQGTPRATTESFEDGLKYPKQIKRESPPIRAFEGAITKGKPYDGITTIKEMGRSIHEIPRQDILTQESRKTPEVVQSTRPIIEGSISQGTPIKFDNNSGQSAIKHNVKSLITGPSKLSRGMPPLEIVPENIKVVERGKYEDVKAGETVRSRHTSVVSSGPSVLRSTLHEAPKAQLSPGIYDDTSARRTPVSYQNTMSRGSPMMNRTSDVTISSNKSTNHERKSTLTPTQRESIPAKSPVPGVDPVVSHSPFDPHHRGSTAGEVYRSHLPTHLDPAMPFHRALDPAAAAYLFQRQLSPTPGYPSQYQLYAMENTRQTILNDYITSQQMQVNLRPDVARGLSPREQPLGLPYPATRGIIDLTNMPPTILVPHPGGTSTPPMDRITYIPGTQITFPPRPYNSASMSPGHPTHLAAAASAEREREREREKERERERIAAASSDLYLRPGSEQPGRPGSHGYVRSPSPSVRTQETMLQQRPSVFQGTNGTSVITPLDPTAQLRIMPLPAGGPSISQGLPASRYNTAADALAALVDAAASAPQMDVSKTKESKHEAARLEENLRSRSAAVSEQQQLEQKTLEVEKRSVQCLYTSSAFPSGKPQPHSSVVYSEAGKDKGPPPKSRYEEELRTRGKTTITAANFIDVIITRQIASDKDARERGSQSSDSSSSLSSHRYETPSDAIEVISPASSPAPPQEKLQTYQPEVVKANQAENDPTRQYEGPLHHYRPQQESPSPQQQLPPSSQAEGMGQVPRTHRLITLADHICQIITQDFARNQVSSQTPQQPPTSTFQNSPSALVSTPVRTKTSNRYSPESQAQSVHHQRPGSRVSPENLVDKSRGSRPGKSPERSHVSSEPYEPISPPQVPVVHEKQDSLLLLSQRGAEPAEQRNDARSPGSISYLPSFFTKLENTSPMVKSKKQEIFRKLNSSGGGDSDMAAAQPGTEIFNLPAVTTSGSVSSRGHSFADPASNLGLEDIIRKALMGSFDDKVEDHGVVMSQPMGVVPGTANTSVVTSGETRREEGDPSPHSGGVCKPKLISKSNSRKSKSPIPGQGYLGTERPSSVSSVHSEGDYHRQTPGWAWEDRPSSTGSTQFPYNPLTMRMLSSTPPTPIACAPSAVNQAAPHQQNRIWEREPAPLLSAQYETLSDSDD

Target: HA-GPS2 (G protein pathway suppressor 2) (UniProt Q13227)
Assay: co-IP; HEK293 cells co-transfected with HA-GPS2 or HA-KDM1A and FLAG-tagged TFs/coregulators, lysed after 48 h; lysate incubated with anti-HA or anti-FLAG on protein A magnetic beads for 3 h at 4°C; western blot with anti-FLAG or anti-HA

Row | binding | Molecule
1 | binds | FLAG-tagged JUN (from UniProt P05412 1-331)
2 | binds | FLAG-tagged NCOR (nuclear receptor corepressor 1) (from UniProt O75376 1-2440)
3 | binds | FLAG-tagged JUNB (protein, UniProt P17275 1-347) MCTKMEQPFYHDDSYTATGYGRAPGGLSLHDYKLLKPSLAVNLADPYRSLKAPGARGPGPEGGGGGSYFSGQGSDTGASLKLASSELERLIVPNSNGVITTTPTPPGQYFYPRGGGSGGGAGGAGGGVTEEQEGFADGFVKALDDLHKMNHVTPPNVSLGATGGPPAGPGGVYAGPEPPPVYTNLSSYSPASASSGGAGAAVGTGSSYPTTTISYLPHAPPFAGGHPAQLGLGRGASTFKEEPQTVPEARSRDATPPVSPINMEDQERIKVERKRLRNRLAATKCRKRKLERIARLEDKVKTLKAENAGLSSTAGLLREQVAQLKQKVMTHVSNGCQLLLGVKGHAF
